Literature values as cited in patent publication US10787437B2, “Processes for the preparation of pyrazole derivatives useful as modulators of the 5-HT2A serotonin receptor” (Arena Pharmaceuticals, Inc., priority 2008, dated 2020).
Some of these results come from one statement about several compounds together.

Test system: diabetic rats
Details: cited from earlier work

SMILES: Cc1nc2sccn2c(=O)c1CCN1CCC(=C(c2ccc(F)cc2)c2ccc(F)cc2)CC1 [ritanserin]
- correction of a 19.8% sciatic motor conduction deficit: 82.6-99.7%

SMILES: COc1cccc(CCc2ccccc2OCC(CN(C)C)OC(=O)CCC(=O)O)c1 (centres unmarked) [sarpogrelate]
- correction of a 19.8% sciatic motor conduction deficit: 82.6-99.7%
